Experimental data from PMC8495200.
Results are given in words; binding and its absence hold for the method and conditions named. Binding seen in cells or lysates may run through a third protein. Here binding means that the protein was enriched with, or labelled near, the bait; the list need not be complete.

Chains of the proteins cited; added tags and fusions are not shown. Lines headed by an entry give the natural chain unless they say otherwise; changes in a name come on top.
UniProt Q54X06: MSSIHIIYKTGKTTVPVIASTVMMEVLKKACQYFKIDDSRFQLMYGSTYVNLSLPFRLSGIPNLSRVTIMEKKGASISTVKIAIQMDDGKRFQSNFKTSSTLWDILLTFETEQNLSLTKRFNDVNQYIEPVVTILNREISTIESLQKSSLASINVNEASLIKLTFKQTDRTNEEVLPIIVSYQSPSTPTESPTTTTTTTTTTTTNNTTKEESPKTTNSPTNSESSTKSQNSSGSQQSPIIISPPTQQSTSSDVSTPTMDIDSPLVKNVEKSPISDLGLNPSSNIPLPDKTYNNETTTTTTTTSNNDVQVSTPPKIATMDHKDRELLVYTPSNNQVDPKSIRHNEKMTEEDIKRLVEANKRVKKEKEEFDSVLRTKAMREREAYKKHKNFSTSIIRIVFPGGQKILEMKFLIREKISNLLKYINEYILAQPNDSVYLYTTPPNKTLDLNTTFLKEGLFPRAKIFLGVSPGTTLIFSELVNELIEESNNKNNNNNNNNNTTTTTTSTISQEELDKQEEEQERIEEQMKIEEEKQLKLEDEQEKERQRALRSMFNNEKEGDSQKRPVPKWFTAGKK
UniProt O00909: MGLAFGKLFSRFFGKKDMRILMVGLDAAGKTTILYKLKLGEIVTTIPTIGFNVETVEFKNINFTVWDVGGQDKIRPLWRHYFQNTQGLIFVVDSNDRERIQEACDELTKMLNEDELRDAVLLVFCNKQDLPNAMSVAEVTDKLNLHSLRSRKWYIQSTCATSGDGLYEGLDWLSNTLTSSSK
UniProt Q54ET6: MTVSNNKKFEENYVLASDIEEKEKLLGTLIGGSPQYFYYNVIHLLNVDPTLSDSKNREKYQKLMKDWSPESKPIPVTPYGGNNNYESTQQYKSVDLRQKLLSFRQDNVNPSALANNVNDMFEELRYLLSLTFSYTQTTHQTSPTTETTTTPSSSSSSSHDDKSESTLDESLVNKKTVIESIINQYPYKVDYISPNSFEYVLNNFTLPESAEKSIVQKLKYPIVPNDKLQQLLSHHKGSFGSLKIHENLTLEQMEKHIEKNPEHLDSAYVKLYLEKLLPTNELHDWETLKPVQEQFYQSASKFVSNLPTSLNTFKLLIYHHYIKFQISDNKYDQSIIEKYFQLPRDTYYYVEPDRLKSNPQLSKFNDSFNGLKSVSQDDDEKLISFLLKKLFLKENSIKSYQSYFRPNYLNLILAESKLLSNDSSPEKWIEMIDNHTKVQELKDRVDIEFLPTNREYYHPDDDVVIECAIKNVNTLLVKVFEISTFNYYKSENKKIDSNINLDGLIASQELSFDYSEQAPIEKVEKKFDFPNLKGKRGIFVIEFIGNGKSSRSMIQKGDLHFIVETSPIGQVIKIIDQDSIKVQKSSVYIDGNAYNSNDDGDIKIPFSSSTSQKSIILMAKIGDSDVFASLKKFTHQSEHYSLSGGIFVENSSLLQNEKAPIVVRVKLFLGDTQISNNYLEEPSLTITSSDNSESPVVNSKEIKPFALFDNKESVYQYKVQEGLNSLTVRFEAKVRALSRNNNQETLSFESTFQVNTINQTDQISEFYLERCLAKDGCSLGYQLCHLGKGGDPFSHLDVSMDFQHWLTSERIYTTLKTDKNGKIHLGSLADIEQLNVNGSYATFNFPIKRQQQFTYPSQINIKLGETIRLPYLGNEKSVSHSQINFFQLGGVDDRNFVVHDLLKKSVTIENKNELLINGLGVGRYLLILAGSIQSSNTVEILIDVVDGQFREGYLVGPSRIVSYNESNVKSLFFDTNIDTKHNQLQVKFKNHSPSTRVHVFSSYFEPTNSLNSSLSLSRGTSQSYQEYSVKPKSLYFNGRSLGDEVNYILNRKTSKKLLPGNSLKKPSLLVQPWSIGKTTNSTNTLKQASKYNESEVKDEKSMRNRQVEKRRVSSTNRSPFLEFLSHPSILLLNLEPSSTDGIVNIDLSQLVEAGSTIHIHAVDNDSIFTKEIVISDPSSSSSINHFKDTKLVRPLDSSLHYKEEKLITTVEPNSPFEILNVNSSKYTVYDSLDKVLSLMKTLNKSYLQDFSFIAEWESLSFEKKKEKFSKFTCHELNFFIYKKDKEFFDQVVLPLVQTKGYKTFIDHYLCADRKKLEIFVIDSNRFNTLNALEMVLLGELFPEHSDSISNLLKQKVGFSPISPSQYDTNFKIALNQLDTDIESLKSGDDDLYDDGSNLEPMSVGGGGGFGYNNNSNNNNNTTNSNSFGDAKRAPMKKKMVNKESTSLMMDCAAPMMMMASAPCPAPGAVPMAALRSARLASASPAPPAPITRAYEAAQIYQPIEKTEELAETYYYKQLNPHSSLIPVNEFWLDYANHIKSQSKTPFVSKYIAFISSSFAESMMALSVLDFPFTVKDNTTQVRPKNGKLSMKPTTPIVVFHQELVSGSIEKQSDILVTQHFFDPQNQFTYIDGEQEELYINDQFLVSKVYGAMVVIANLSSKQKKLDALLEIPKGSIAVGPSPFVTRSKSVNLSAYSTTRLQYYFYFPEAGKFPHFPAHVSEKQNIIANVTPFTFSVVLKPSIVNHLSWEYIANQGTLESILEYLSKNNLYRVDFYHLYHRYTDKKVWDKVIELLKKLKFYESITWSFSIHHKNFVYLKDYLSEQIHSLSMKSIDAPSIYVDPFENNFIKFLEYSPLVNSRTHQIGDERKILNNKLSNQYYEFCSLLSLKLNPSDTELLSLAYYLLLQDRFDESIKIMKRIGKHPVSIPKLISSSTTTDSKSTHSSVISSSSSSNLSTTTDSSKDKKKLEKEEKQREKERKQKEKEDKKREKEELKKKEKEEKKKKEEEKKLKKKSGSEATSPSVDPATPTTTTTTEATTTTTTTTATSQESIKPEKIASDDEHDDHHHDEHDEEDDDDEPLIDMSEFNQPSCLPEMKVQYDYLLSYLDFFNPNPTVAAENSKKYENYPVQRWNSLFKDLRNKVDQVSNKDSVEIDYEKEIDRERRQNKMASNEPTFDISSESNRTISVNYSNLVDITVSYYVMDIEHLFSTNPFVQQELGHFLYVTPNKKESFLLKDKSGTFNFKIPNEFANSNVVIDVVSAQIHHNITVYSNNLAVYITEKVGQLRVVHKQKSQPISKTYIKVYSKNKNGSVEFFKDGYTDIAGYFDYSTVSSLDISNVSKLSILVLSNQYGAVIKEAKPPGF
UniProt P54640: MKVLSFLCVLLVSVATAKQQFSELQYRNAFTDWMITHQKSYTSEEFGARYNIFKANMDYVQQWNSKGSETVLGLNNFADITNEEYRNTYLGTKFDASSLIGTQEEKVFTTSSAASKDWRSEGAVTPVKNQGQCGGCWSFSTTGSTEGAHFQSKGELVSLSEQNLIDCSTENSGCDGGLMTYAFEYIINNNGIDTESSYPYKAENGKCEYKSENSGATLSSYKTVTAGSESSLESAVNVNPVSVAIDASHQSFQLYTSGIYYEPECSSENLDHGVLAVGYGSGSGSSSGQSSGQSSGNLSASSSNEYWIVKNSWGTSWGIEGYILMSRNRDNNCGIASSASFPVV
UniProt Q54TY4: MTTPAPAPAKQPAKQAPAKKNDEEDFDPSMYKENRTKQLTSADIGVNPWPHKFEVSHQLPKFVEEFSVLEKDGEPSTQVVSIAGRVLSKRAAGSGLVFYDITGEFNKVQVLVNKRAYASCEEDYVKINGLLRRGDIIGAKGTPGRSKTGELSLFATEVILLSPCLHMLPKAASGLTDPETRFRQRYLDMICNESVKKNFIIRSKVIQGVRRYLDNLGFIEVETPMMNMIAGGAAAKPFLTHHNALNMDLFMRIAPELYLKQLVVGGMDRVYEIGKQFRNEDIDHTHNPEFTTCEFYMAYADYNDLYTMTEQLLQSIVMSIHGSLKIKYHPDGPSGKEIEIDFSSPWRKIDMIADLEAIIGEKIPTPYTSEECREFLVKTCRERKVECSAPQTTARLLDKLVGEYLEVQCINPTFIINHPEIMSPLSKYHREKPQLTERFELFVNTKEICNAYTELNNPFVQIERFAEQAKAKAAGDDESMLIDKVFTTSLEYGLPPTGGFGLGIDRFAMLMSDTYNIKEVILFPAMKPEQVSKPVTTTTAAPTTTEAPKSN
UniProt P54697: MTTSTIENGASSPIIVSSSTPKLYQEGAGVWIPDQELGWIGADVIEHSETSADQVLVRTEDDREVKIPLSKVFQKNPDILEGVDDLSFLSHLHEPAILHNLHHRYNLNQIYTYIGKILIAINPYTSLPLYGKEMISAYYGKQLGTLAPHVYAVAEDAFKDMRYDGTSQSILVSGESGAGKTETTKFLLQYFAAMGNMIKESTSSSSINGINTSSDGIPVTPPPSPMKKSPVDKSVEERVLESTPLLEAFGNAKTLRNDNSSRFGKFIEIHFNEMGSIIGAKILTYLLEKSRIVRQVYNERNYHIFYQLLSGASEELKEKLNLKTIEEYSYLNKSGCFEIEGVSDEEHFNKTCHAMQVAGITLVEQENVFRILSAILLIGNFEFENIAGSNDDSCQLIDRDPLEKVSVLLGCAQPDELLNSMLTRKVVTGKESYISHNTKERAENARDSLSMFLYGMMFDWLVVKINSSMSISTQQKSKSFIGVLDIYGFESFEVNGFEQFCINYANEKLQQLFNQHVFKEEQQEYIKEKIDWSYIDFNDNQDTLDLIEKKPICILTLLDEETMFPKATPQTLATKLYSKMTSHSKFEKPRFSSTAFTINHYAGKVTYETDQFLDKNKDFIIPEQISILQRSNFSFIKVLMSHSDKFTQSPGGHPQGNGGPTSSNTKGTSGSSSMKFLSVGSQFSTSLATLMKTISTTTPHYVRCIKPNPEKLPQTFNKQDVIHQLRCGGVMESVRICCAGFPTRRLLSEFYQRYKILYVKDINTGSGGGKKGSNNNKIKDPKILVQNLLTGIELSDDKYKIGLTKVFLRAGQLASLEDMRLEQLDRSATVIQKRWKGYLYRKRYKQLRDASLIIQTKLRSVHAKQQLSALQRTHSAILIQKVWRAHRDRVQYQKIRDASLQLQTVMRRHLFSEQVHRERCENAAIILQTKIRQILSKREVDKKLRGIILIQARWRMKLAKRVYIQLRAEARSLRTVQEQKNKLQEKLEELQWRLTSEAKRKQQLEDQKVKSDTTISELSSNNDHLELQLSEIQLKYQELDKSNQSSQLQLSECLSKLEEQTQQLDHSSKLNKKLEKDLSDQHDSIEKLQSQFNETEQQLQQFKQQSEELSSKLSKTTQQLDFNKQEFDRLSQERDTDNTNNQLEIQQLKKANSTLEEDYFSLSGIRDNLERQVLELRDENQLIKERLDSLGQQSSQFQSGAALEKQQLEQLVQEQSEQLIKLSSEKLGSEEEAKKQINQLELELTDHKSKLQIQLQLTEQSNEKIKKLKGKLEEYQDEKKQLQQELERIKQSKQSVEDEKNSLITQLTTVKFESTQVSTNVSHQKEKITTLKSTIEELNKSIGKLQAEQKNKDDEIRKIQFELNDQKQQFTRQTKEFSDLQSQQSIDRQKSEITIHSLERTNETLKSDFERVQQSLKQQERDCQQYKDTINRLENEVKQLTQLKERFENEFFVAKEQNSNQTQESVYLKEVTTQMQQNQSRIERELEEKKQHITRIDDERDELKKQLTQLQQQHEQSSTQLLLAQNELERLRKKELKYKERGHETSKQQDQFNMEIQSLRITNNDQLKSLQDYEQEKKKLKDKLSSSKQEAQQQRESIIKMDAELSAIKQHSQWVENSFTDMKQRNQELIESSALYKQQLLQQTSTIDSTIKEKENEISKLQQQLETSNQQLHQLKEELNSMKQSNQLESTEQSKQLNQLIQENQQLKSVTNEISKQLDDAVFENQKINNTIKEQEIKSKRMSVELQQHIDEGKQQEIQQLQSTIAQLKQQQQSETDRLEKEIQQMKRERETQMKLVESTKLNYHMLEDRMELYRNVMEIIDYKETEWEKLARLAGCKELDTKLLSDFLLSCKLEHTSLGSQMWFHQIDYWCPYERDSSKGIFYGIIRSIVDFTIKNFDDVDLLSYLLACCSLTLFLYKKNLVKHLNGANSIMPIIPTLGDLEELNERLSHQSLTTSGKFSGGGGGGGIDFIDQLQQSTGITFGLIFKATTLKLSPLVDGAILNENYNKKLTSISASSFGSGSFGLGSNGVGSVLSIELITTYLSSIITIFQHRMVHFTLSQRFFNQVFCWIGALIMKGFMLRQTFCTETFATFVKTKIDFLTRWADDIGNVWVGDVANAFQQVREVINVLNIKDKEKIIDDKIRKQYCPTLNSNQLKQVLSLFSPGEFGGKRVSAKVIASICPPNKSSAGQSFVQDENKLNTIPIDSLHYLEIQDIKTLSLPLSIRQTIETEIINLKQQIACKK
UniProt P19198: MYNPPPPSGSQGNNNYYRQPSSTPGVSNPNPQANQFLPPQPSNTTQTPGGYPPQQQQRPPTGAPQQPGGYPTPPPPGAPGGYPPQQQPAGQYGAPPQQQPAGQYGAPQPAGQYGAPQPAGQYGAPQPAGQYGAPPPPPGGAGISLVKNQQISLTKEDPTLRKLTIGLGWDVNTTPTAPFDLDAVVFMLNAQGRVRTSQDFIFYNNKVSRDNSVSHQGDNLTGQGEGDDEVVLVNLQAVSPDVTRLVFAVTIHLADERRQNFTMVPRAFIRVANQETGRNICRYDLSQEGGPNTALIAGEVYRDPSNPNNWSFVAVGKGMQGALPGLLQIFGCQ

Legend:
[1] = molecular target: UBXD9-GFP (C-terminally tagged UBXD9) (D. discoideum) (UniProt Q54X06); experiment: affinity purification with mass spectrometry; GFP-trap beads, soluble proteins of AX2 cells expressing UBXD9-GFP or GFP-UBXD9 against AX2/GFP; four replicates, fold change > 1.4 and p < 0.05
[2] = molecular target: BirA-UBXD9 (D. discoideum) (UniProt Q54X06); experiment: proximity labelling; BioID: AX2/BirA-UBXD9 cells with 50 uM biotin for 16 h against AX2, streptavidin sepharose beads, mass spectrometry; four replicates, fold change > 1.4 and p < 0.05

Row | Substance | binding [1] | binding [2]
1 | ADP-ribosylation factor 1 (from UniProt O00909 1-182) | binds | 
2 | Actin-binding protein F (from UniProt Q54ET6 1-2364) | binds | 
3 | Cysteine proteinase 5 (from UniProt P54640) (enzyme) | binds | 
4 | Drebrin-like protein (from UniProt Q557J6) | binds | 
5 | Eukaryotic peptide chain release factor (from UniProt Q9BMX0) | binds | binds
6 | Lysine–tRNA ligase (from UniProt Q54TY4) (enzyme) | binds | 
7 | Myosin-J heavy chain (from UniProt P54697 1-2245) | binds | 
8 | Probable arginine–tRNA ligase (from UniProt Q558Z0) (enzyme) | binds | 
9 | Probable serine/threonine-protein kinase DDB_G0277449 (from UniProt Q8MYF1) (enzyme) | binds | 
10 | Putative bifunctional amine oxidase (from UniProt Q54EW2) | binds | 
11 | Ran binding protein 1 domain-containing protein (from UniProt Q54KD9) | binds | 
12 | V-type proton ATPase subunit G (from UniProt Q54Z13) | binds | 
13 | cAMP-binding protein 1 (from UniProt P19198) | binds | 
14 | p97, endogenous (from UniProt P90532 1-793) (enzyme) | binds | binds
